Test results taken from the supplement of paper PMC5407854, “Inhibitor of ppGalNAc-T3-mediated O-glycosylation blocks cancer cell invasiveness and lowers FGF23 levels” (eLife, 2017).
The other results are listed elsewhere or left out. Small differences around the control level are noise.

These molecules were tested on ppGalNAc-T3 sensor (assay: T3 sensor activation Q score (MG/GFP ratio z-score vs DMSO controls) (SD units); higher = more sensor activation (inhibition of ppGalNAc-T3 glycosylation)). Settings: HEK293 sensor cells; 10 µM; 6 h.
Method: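 Cells were treated with compound at 10 uM for 6 h, then MG/GFP ratio was read by flow cytometry (10,000 cells per well, duplicate wells). Q = (R - R_neg)/SD_neg relative to DMSO vehicle controls; the signal rises when the glycosyltransferase is inhibited.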
In the case of `Cc1cccc(N2C(=O)CC(N3CCOCC3)C2=O)c1` (centres undefined), the “T3 sensor activation Q score” value is reported as 0.85.
`CCN(CC)S(=O)(=O)c1cc(C(=O)O)c(Cl)cc1Cl` was tested, and the “T3 sensor activation Q score” value was -2.08.
With `CC1CC(Nc2ccccc2)c2ccccc2N1C(=O)c1cccs1` (centres undefined) the “T3 sensor activation Q score” value was -1.34.
For `O=c1cc(O)n(-c2ccccc2)[nH]1`, the “T3 sensor activation Q score” value was -0.735.
With `c1ccc(-c2nnn(C34CC5CC(CC(C5)C3)C4)n2)cc1` the “T3 sensor activation Q score” value was -0.035.
`O=C(Nc1cc(NC(=O)c2ccccc2)cc(-c2nc3ccccc3o2)c1)c1ccccc1` was tested, and the “T3 sensor activation Q score” value was -0.095.
For `COC(=O)NC(c1ccc(Br)cc1)C(Cl)(Cl)Cl` (centres undefined), the “T3 sensor activation Q score” value was -1.04.
With `O=C1C=C(Nc2ccccc2F)CC(c2ccccc2)C1` (centres undefined) the “T3 sensor activation Q score” value was -0.385.
For `COc1cc(C)c(CN2CCSCC2)cc1C`, the “T3 sensor activation Q score” value was -0.36.
In the case of `Cc1ccc(NS(=O)(=O)c2ccc(Cl)cc2)cc1`, the “T3 sensor activation Q score” value is reported as 0.59.
`O=C(C1CCN(S(=O)(=O)c2ccccc2)CC1)N1CCN(Cc2ccccc2)CC1` was tested, and the “T3 sensor activation Q score” value was -0.45.
With `O=C(O)C#CCN1C(=O)c2ccccc2C1=O` the “T3 sensor activation Q score” value was 0.35.
`CCCCN1C(=O)C(O)=C(C(C)=O)C1c1ccc(OC)c(OC)c1` (centres undefined) was tested, and the “T3 sensor activation Q score” value was -0.22.
With `O=[N+]([O-])C1CS(=O)(=O)C=C1N1CCOCC1` (centres undefined) the “T3 sensor activation Q score” value was -0.135.
In the case of `Cc1cccc(C(=O)N2CCOCC2)c1`, the “T3 sensor activation Q score” value is reported as 0.31.
`O=C([C@@H]1C[C@@H]1c1ccccc1)N1CCOCC1` was tested, and the “T3 sensor activation Q score” value was 1.4.
With `O=S(=O)(Nc1cc(Cl)c(O)c(Br)c1)c1ccc(Cl)cc1` the “T3 sensor activation Q score” value was -0.385.
`O=c1[nH]n(-c2ccc(Cl)cc2)c(=O)c(Cl)c1Cl` was tested, and the “T3 sensor activation Q score” value was -0.16.
`Cc1ccc(S(=O)(=O)c2ccc(Oc3cccc(N)c3)cc2)cc1` was tested, and the “T3 sensor activation Q score” value was 0.75.
With `CCN1CCN(Cc2coc3ccc(C)cc3c2=O)CC1` the “T3 sensor activation Q score” value was 0.785.
`CC(=O)c1cc(F)c(N2CCN(C(=O)c3cc(F)c(F)cc3C)CC2)cc1C` was tested, and the “T3 sensor activation Q score” value was 0.375.
In the case of `Cc1cc(C)[n+]2nc([S-])sc2n1`, the “T3 sensor activation Q score” value is reported as 0.6.
`c1ccc(-c2ccccc2OCCn2ccnc2)cc1` was tested, and the “T3 sensor activation Q score” value was -0.84.
For `CN1CCN(Cc2cccc(OCc3ccccc3)c2)CC1`, the “T3 sensor activation Q score” value was 0.135.
`COc1ccccc1CNC(=O)CCc1ccccc1` was tested, and the “T3 sensor activation Q score” value was 0.765.
`COc1cccc(CN2CCSCC2)c1OC` was tested, and the “T3 sensor activation Q score” value was 0.155.
`Cc1ccc(C(=O)CC(=O)c2cccc(F)c2)c(O)c1` was tested, and the “T3 sensor activation Q score” value was -0.425.
In the case of `CC1CCCN(CC(O)COc2ccc(Cl)cc2)C1` (centres undefined), the “T3 sensor activation Q score” value is reported as -0.06.
`Cc1cccc(C(=O)NCc2ccncc2)c1` was tested, and the “T3 sensor activation Q score” value was 0.655.
`COc1ccc(CN2CCN(c3ccc(F)cc3)CC2)c(OC)c1C` was tested, and the “T3 sensor activation Q score” value was 0.435.
In the case of `NNC(=O)C(=O)Nc1ccc(Cl)cc1`, the “T3 sensor activation Q score” value is reported as 0.31.
In the case of `NC(=O)N1CCN(C(=O)c2ccco2)CC1`, the “T3 sensor activation Q score” value is reported as 0.5.
`Cc1ccc(-n2cnnn2)cc1Cl` was tested, and the “T3 sensor activation Q score” value was 0.28.
`COc1cc2c(cc1OC)C(c1ccccc1[N+](=O)[O-])N(C(C)=O)CC2` (centres undefined) was tested, and the “T3 sensor activation Q score” value was -0.08.
For `COc1ccc(OC)c(S(=O)(=O)c2ccc(Br)cc2)c1`, the “T3 sensor activation Q score” value was 0.
In the case of `CCN(C(=O)c1ccco1)c1ccccc1`, the “T3 sensor activation Q score” value is reported as -0.14.
In the case of `COc1ccc(NS(=O)(=O)c2cccc(N)c2)cc1`, the “T3 sensor activation Q score” value is reported as 0.12.
`c1ccc(Cc2nc3ccccc3o2)cc1` was tested, and the “T3 sensor activation Q score” value was 2.65.
For `Cc1ccc(OCC(=O)Nc2ccccc2C(N)=O)cc1`, the “T3 sensor activation Q score” value was -0.35.
